In PubChem BioAssay AID2685 (National Center for Advancing Translational Sciences (NCATS), 2010):
The list shows a part of the results. Further columns of the screen follow, without active or inactive calls. The list favours compounds with an active or inconclusive main result. Words in brackets tell the shape of the fitted curve; partial curves, single points and poor fits give uncertain potencies.

Experiment: qHTS Assay for Lipid Storage Modulators in Drosophila S3 Cells;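 as to cell number change: cells counted by Cell Tracker Red CMTPX staining in the red channel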
Details: BODIPY lipid droplet fluorescence, 18-24 h; for cell number change: measured here: cell count max response, cells fed with added oleic acid
How it was run: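 Drosophila S3 cells loaded with oleic acid (400 uM, as added) and compounds at several concentrations; lipid droplets imaged by 488-nm laser-scanning cytometry, 500–530 nm intensity and object ratio to cell channel. Percent activity normalized to 20 uM Triacsin C.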

[1] = measured here: lipid fluorescence (Fed channel) AC50, cells fed with added oleic acid
[2] = measured here: cell number channel AC50, cells fed with added oleic acid

SMILES	cell number change [%]	AC50 [1]	AC50 [2]
O=C(CCl)Nc1ccc(Oc2cnc3ccccc3n2)cc1	-10.9		
Cc1cc(C)n2nc3nc(N4CCCC4)nc(-c4ccccc4)c3c2n1	-12.1	116 nM [rising, full curve, poor fit]	
Cc1cc(C)c(NC(=O)C2CCCCN2C)c(C)c1 (stereo not given)	-13.9	3660 nM [rising, full curve, poor fit]	
Clc1ccc(-c2nnc(-c3ccccc3)nc2N2CCSCC2)cc1	14.3	29100 nM [rising, single point]	
Cc1c(C(=O)Nc2ccncc2)oc2ccccc12	-18	146 nM [rising, full curve, poor fit]	
Cc1ccc(SCCC(=O)N/N=C/c2cccnc2)cc1	-46.3	3660 nM [rising, single point]	29100 nM [falling, single point]
CC(=O)c1ccc(N2CCN(C(=O)/C=C/c3cccs3)CC2)cc1	-4.19	1160 nM [rising, full curve]	231 nM [rising, full curve]
Cc1cc2oc(=O)cc(CN3CCCCC3C)c2cc1Cl (stereo not given)	-1.39		
COc1ccccc1CN(Cc1nc2ccccc2c(=O)[nH]1)C(=O)Nc1cccc(C)c1	-2.89	6510 nM [rising, single point]	
Cc1cccc(/C=C2\Sc3ccc(C(=O)N4CCOCC4)cc3N(C)C2=O)c1	-20.4	6510 nM [falling, single point]	1460 nM [falling, full curve, poor fit]
CCOc1ccc(CNC(=O)C(C)n2ccc3cc(S(=O)(=O)N4CCCC4)ccc32)cc1 (stereo not given)	-18.1	146 nM [rising, full curve, poor fit]	
CCC(=O)Nc1ccc2ccccc2c1	9.03	18400 nM [rising, single point]	
COc1ccccc1-c1cc(C(=O)N/N=C\c2cnn(C)c2C)c2ccccc2n1	42.4		6510 nM [rising, partial curve]
O=C(COC(=O)c1cc(S(=O)(=O)N2CCCC2)ccc1O)NCCc1ccccc1	3.02	517 nM [falling, single point]	
O=C(CCN1C(=O)C2C3CCC(C3)C2C1=O)Nc1cccc(Cl)c1 (stereo not given)	1.94	920 nM [rising, partial curve, poor fit]	
Cc1noc(-c2ccc(C(F)(F)F)cc2)c1NC(=O)Nc1ccc(Cl)cc1	-53.1	20600 nM [falling, partial curve, poor fit]	
CCCC(=O)Nc1nc2ccc(NC(=O)c3cccnc3)cc2s1	7.86	2060 nM [rising, partial curve, poor fit]	

2 entries picked at random from the list so far:
SMILES	cell number change [%]	AC50 [1]	AC50 [2]
COc1ccccc1-c1cc(C(=O)N/N=C\c2cnn(C)c2C)c2ccccc2n1	42.4		6510 nM [rising, partial curve]
O=C(CCN1C(=O)C2C3CCC(C3)C2C1=O)Nc1cccc(Cl)c1 (stereo not given)	1.94	920 nM [rising, partial curve, poor fit]	
